The record followed here is US20210003577A1 (MAYO FOUNDATION FOR MEDICAL EDUCATION AND RESEARCH, published 2021).

Results are given in words; binding and its absence hold for the method and conditions named. In cells and extracts the contact can be indirect. Some binding calls cover weakened binding; strength is not graded here. For some assays here: Sequences can lack the tags named with a protein.

For experiment [1], the target named is endogenous TET2 in C4-2CON and C4-2ENZ-R cells (human), Q6N021. The experiment can be described thus: co-immunoprecipitation of endogenous proteins, C4-2CON and C4-2ENZ-R cells. Conditions: remark: other sources report otherwise.
Experiment [2] has as its target V5-tagged TET2 purified from sf9 insect cells (UniProt Q6N021). The experiment can be described thus: in vitro His-tag pulldown (Ni-NTA), His-CXXC5 with V5-TET2.

B1: endogenous AR in C4-2CON and C4-2ENZ-R cells (receptor, human, UniProt P10275 1-920, looked up)
chain: MEVQLGLGRVYPRPPSKTYRGAFQNLFQSVREVIQNPGPRHPEAASAAPPGASLLLLQQQQQQQQQQQQQQQQQQQQQQQETSPRQQQQQQGEDGSPQAHRRGPTGYLVLDEEQQPSQPQSALECHPERGCVPEPGAAVAASKGLPQQLPAPPDEDDSAAPSTLSLLGPTFPGLSSCSADLKDILSEASTMQLLQQQQQEAVSEGSSSGRAREASGAPTSSKDNYLGGTSTISDNAKELCKAVSVSMGLGVEALEHLSPGEQLRGDCMYAPLLGVPPAVRPTPCAPLAECKGSLLDDSAGKSTEDTAEYSPFKGGYTKGLEGESLGCSGSAAAGSSGTLELPSTLSLYKSGALDEAAAYQSRDYYNFPLALAGPPPPPPPPHPHARIKLENPLDYGSAWAAAAAQCRYGDLASLHGAGAAGPGSGSPSAAASSSWHTLFTAEEGQLYGPCGGGGGGGGGGGGGGGGGGGGGGGEAGAVAPYGYTRPPQGLAGQESDFTAPDVWYPGGMVSRVPYPSPTCVKSEMGPWMDSYSGPYGDMRLETARDHVLPIDYYFPPQKTCLICGDEASGCHYGALTCGSCKVFFKRAAEGKQKYLCASRNDCTIDKFRRKNCPSCRLRKCYEAGMTLGARKLKKLGNLKLQEEGEASSTTSPTEETTQKLTVSHIEGYECQPIFLNVLEAIEPGVVCAGHDNNQPDSFAALLSSLNELGERQLVHVVKWAKALPGFRNLHVDDQMAVIQYSWMGLMVFAMGWRSFTNVNSRMLYFAPDLVFNEYRMHKSRMYSQCVRMRHLSQEFGWLQITPQEFLCMKALLLFSIIPVDGLKNQKFFDELRMNYIKELDRIIACKRKNPTSCSRRFYQLTKLLDSVQPIARELHQFTFDLLIKSHMVSVDFPEMMAEIISVQVPKILSGKVKPIYFHTQ
notes: also called androgen receptor; ARFL
On to B1, for which the binding entry in experiment [1] is on record as “binds”.

B2: His-tagged CXXC5 purified from E. coli (protein, UniProt Q7LFL8 1-322, looked up, not shown: small tags and cut ends)
chain: MSSLGGGSQDAGGSSSSSTNGSGGSGSSGPKAGAADKSAVVAAAAPASVADDTPPPERRNKSGIISEPLNKSLRRSRPLSHYSSFGSSGGSGGGSMMGGESADKATAAAAAASLLANGHDLAAAMAVDKSNPTSKHKSGAVASLLSKAERATELAAEGQLTLQQFAQSTEMLKRVVQEHLPLMSEAGAGLPDMEAVAGAEALNGQSDFPYLGAFPINPGLFIMTPAGVFLAESALHMAGLAEYPMQGELASAISSGKKKRKRCGMCAPCRRRINCEQCSSCRNRKTGHQICKFRKCEELKKKPSAALEKVMLPTGAAFRWFQ
Take B2: the binding entry in experiment [2] is “binds”.
